Experimental data from the supplement of paper PMC12889115.
Some of the results follow. Values are raw readings; no control value is given beside them.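 First-pass screen: polymyxin B was added at a level that permeabilizes the Salmonella outer membrane while sparing the inner membrane. DMSO wells, with and without polymyxin B, defined maximum growth. Because plates differed from one another, each plate's data were ranked separately and the compounds with the lowest OD600 were carried forward as hits.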

System: Salmonella enterica serovar Typhimurium SL1344
Experiment: bacterial growth OD600 after 18 h with compound and polymyxin B; higher = more bacterial growth (less inhibition)
Conditions: 50 µM, Mueller-Hinton broth

Cc1c(C(=O)N(C)C(C)c2cccs2)cnn1-c1ncc2c(n1)-c1ccccc1CCC2 (centres undefined)
bacterial growth OD600 (polymyxin B 0.75 µg/mL): 0.012

CC(Cc1ccccn1)N1CCC(N2CCC(C(=O)NCc3cccnc3)CC2)CC1 (centres undefined)
bacterial growth OD600 (polymyxin B 1 µg/mL): 0.954

CC#CCN1C(=O)NC(CCc2ccccc2)(C2CCN(CCC(C)C)CC2)C1=O (centres undefined)
bacterial growth OD600 (polymyxin B 0.75 µg/mL): 0.827

COc1cccc(-c2nc(CN3CCN(C(=O)c4ccco4)CC3)c(C)o2)c1OC
bacterial growth OD600 (polymyxin B 1 µg/mL): 0.893

CCOc1ccccc1CN1CCc2c(C(=O)N3CCCCC3C(=O)OC)c(OC)cc(=O)n2CC1 (centres undefined)
bacterial growth OD600 (polymyxin B 0.75 µg/mL): 0.857

COc1cccc(CNC(=O)CCC2CCCN(C(=O)CSc3nncn3C)C2)c1 (centres undefined)
bacterial growth OD600 (polymyxin B 1 µg/mL): 0.667

Cc1cc(-c2ccnc(-n3ncc(C(=O)NC(C)CCCC(C)(C)O)c3C3CC3)n2)c(C)s1 (centres undefined)
bacterial growth OD600 (polymyxin B 0.75 µg/mL): 0.743

Cc1c(C(=O)NCCCc2ccccc2)oc2c(F)cccc12
bacterial growth OD600 (polymyxin B 1 µg/mL): 0.249

CCn1ccnc1CN1CCC(C2CCN(Cc3ccc(Cl)cc3)C2)CC1 (centres undefined)
bacterial growth OD600 (polymyxin B 0.75 µg/mL): 0.752

O=C1N(Cc2cccnc2)C[C@@H]2C[C@@H](c3ccc(OCc4ccccc4)cc3)N3CCC[C@@]123
bacterial growth OD600 (polymyxin B 0.75 µg/mL): 0.53

O=C(NCCN1Cc2ccccc2OC(c2ccccc2F)C1)C(c1cccnc1)N1CCCC1 (centres undefined)
bacterial growth OD600 (polymyxin B 0.75 µg/mL): 0.601

CCn1ccnc1CN1CCC(n2nccc2NC(=O)C2CC2)CC1
bacterial growth OD600 (polymyxin B 1 µg/mL): 0.884

O=C(CN1CCCC1=O)NCc1cccnc1Oc1ccccc1
bacterial growth OD600 (polymyxin B 1 µg/mL): 0.964

Cc1cccc(CCNC(=O)CC2C(=O)NCCN2Cc2cccs2)n1 (centres undefined)
bacterial growth OD600 (polymyxin B 1 µg/mL): 1.01

CCOC(=O)C1(Cc2cccc(OC)c2)CCN(Cc2c(C)nn(CC)c2C)CC1
bacterial growth OD600 (polymyxin B 1 µg/mL): 0.856

Cc1cccc(CN2CCCC(C(=O)Nc3ccc(-c4cscn4)cc3)C2)c1 (centres undefined)
bacterial growth OD600 (polymyxin B 1 µg/mL): 0.887

O=C(CCn1cnnn1)N1CCCC(CCc2ccccc2)C1 (centres undefined)
bacterial growth OD600 (polymyxin B 0.75 µg/mL): 0.85

Cc1csc(SCC(=O)N2CCc3c(cnc(C)c3CNC(=O)c3ccc4c(c3)OCO4)C2)n1
bacterial growth OD600 (polymyxin B 0.75 µg/mL): 0.821

NC(=O)C1(C(=O)N2CCCC(N3CCN(Cc4ccc5c(c4)OCO5)CC3)C2)CC1 (centres undefined)
bacterial growth OD600 (polymyxin B 1 µg/mL): 0.942
